The other results are listed elsewhere or left out.

By UniProt entry, the sequences of proteins in these tests, tags left out. Where a name states a change or a piece, a line headed by the entry shows the natural chain unless it says otherwise.
UniProt Q9NRP2: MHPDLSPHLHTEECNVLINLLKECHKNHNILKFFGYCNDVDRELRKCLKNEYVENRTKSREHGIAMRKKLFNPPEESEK
UniProt Q9NX76: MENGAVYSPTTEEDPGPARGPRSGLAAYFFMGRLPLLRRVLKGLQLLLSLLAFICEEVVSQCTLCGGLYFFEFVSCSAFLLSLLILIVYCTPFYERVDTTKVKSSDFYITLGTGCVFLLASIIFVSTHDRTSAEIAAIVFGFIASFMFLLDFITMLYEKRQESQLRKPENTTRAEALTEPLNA
UniProt Q9BT09: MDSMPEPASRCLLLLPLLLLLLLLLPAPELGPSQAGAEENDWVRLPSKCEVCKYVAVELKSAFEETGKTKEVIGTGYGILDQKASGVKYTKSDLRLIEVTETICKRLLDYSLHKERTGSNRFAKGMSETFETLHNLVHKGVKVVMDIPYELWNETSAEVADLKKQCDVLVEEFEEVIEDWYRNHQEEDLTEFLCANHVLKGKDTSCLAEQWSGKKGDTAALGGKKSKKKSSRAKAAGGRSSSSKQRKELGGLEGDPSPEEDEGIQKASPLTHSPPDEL
UniProt Q99828: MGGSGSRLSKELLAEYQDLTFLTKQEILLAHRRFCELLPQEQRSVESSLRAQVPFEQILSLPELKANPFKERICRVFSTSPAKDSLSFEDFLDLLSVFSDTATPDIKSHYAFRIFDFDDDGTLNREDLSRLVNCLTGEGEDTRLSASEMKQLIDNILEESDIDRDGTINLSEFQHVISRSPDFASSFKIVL
UniProt Q9H6Q4: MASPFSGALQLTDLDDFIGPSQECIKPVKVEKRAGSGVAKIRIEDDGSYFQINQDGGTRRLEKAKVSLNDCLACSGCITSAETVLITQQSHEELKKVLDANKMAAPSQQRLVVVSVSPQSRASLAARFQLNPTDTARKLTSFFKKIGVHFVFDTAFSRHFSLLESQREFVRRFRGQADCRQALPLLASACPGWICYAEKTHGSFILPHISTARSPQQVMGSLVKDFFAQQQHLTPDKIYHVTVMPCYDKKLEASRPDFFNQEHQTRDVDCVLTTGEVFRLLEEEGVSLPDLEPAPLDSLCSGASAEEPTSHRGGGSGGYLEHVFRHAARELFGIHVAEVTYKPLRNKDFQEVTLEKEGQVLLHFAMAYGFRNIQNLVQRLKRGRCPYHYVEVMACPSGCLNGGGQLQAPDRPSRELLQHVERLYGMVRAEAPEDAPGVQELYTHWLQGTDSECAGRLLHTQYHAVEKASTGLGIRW
UniProt Q9GZY4: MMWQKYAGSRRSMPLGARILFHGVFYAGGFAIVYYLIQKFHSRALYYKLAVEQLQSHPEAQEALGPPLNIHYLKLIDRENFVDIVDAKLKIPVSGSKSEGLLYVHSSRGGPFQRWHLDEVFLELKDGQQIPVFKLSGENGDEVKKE
UniProt Q9Y2B0: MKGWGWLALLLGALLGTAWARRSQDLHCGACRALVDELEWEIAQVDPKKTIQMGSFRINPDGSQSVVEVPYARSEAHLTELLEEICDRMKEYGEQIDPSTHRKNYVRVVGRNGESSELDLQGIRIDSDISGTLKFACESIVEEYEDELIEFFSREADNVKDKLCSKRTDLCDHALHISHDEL
UniProt Q9NZ45: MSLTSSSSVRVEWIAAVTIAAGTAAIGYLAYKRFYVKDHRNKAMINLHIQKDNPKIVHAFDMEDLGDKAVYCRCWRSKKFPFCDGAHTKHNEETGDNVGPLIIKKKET
UniProt Q9C0A0: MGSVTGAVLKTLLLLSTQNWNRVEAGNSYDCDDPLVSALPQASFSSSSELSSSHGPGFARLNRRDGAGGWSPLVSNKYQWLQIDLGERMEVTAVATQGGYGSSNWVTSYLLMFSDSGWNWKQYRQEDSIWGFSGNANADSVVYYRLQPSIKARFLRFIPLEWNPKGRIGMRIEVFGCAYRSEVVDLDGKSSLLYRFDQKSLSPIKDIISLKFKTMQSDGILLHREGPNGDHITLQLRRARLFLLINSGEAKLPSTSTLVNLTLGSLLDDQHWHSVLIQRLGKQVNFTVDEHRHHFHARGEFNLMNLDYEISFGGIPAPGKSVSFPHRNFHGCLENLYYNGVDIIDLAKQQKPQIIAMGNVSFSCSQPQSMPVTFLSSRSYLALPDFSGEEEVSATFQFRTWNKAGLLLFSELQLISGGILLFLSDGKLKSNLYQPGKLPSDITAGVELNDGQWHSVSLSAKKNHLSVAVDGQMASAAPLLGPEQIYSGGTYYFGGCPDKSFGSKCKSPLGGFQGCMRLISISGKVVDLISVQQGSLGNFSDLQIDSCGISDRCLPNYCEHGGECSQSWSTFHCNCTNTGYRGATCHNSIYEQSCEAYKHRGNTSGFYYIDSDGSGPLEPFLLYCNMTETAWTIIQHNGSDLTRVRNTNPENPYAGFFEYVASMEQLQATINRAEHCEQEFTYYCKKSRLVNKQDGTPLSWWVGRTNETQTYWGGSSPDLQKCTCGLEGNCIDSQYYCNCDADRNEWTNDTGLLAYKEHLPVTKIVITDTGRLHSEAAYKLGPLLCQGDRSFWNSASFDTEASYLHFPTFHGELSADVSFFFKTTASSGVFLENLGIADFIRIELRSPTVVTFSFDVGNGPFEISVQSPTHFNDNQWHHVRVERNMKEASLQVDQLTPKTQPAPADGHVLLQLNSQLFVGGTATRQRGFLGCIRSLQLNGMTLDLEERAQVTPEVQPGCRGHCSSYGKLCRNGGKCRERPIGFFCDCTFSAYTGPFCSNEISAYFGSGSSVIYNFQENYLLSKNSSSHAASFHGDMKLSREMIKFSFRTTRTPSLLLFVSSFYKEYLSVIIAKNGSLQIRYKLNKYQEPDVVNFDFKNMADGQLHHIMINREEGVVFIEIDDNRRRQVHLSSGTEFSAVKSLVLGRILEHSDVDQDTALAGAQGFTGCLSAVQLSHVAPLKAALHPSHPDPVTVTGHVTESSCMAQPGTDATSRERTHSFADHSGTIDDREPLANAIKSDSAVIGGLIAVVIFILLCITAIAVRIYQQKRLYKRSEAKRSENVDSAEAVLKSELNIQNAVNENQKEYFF
UniProt Q7Z7K0: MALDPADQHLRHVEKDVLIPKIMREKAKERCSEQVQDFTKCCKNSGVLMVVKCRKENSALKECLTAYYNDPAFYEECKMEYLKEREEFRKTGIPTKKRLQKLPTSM
UniProt P0C7P0: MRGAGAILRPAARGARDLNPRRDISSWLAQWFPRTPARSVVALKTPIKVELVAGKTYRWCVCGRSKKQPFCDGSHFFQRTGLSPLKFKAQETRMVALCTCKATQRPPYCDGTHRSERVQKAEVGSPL
UniProt Q8WUH1: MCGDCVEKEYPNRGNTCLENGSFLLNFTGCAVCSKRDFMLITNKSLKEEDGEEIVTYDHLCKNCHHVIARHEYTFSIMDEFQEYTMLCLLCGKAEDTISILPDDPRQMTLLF
UniProt Q92600, whole entry, looked up: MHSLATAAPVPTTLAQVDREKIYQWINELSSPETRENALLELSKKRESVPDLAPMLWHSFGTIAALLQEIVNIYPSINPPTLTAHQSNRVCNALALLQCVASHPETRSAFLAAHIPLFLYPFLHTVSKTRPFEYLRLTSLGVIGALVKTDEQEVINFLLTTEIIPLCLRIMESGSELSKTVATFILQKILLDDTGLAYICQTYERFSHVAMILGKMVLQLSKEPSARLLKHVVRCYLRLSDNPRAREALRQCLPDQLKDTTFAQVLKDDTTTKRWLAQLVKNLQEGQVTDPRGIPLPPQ
UniProt P08123: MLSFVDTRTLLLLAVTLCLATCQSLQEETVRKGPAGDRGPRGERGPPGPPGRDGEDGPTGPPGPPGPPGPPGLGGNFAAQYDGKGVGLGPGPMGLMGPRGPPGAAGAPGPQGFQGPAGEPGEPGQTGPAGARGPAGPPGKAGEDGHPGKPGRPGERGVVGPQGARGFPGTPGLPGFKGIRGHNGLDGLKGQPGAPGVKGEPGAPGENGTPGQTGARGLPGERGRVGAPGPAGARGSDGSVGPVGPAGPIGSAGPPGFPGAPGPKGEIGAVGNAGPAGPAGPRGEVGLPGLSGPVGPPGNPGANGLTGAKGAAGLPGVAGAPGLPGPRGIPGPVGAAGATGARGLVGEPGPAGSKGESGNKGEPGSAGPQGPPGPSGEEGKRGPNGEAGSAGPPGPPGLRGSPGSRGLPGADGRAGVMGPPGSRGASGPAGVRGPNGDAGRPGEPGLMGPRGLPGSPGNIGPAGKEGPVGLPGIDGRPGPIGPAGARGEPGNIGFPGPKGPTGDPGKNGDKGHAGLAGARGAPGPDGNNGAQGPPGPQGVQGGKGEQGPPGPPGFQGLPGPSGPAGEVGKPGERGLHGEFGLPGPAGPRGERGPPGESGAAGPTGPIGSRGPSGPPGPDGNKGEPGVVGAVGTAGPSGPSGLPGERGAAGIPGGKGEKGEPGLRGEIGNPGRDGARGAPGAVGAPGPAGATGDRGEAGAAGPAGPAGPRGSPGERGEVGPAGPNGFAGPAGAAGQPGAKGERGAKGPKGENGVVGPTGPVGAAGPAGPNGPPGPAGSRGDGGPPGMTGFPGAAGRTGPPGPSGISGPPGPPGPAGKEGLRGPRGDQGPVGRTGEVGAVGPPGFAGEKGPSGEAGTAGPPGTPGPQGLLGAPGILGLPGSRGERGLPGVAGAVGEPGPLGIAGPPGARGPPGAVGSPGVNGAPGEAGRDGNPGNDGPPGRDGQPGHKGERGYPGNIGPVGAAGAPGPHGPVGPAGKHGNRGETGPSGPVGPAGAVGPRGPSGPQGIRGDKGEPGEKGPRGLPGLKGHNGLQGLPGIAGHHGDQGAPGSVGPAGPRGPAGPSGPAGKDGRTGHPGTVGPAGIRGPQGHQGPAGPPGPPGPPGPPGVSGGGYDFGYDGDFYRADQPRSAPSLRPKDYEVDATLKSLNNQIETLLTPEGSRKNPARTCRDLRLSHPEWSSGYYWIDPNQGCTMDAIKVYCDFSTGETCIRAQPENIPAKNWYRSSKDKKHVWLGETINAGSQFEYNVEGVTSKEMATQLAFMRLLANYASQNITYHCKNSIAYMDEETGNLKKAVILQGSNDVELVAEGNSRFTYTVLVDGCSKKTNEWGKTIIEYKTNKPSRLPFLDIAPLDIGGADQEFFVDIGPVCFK
UniProt Q9UHD1: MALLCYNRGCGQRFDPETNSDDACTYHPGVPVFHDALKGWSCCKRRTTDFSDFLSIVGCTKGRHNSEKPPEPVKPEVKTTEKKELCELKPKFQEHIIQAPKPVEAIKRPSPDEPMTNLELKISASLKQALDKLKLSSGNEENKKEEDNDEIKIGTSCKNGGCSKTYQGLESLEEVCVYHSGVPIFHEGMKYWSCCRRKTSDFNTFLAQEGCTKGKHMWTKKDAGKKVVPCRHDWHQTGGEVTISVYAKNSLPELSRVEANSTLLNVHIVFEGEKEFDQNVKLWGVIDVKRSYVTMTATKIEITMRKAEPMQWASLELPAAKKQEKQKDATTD
UniProt P06732: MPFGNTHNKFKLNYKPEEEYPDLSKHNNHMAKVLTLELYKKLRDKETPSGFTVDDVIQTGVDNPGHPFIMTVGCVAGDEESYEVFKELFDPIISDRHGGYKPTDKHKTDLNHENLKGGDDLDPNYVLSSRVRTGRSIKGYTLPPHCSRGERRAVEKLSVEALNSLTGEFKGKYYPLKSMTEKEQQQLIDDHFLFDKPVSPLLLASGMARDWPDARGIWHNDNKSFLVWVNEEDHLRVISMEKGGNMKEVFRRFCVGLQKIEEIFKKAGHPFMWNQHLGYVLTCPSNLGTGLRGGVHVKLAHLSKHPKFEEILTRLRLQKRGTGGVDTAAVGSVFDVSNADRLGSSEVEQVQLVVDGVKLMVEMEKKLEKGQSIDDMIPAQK
UniProt Q6P4Q7: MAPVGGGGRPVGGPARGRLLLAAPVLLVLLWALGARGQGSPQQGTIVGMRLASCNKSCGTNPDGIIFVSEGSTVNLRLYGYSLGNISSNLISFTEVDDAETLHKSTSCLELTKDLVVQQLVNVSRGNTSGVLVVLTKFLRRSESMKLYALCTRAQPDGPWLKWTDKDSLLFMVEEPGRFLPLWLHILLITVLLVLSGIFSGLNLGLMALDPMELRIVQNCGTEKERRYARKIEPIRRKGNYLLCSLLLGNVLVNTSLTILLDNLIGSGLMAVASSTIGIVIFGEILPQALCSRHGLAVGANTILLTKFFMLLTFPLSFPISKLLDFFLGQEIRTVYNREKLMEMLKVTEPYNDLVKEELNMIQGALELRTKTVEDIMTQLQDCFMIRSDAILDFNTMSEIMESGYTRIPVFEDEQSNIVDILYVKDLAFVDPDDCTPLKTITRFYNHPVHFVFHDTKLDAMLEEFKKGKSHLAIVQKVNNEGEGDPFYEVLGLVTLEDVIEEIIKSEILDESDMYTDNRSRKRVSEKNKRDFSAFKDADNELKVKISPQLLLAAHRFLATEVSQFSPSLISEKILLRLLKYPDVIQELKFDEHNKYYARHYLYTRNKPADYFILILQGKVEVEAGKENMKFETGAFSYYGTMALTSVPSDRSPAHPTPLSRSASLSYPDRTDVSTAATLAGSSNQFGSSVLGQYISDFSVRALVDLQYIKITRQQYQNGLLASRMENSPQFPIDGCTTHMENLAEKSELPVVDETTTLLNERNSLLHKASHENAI
UniProt Q8N5K1: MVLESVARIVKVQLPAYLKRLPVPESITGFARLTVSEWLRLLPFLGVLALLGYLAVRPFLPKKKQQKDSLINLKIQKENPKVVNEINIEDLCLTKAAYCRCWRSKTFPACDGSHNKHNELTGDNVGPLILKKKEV

Compound in the assay: C=CC(=O)N1CCC[C@@H](n2nc(-c3ccc(Oc4ccccc4)cc3)c3c(N)ncnc32)C1 [ibrutinib]
Description: log2 fold change, soluble protein after heating vs DMSO (PISA); higher = thermal stabilisation; K562 cells, 10 uM, 30 min; active = over 0.2 and 3.5 SD of the protein, either way, in both replicates (recomputed). Put shortly:
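Aliquots of K562 cells (2×10^6 cells/mL) treated with 10 μM compound for 30 min were heated for 3 min over 48°C-58°C. After pooling and extraction in PBS with 0.5% NP-40 at 4°C, soluble protein from a 21,000xg, 90 min spin was quantified by TMTpro 16plex LC-MS/MS with channel sums equalised. Thermal stability is expressed against control samples, from duplicates, as a log2 fold change.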
As to CMC2 (UniProt Q9NRP2), the log2 fold change was inactive: -0.017.

With CMTM6 (UniProt Q9NX76), the log2 fold change is inactive: 0.036.

Consider CNPY3 (UniProt Q9BT09), for which the log2 fold change is inactive: 0.005.

Regarding CIB1 isoform 2 (UniProt Q99828), the log2 fold change was inactive: 0.056.

Regarding CNST (UniProt Q6PJW8), the log2 fold change is inactive: 0.007.

On to CIAO3 (UniProt Q9H6Q4), for which the log2 fold change is inactive: -0.011.

On to CNOT11 (UniProt Q9UKZ1), for which the log2 fold change was inactive: 0.039.

Take COA1 (UniProt Q9GZY4): the log2 fold change was inactive: -0.02.

As for CNPY2 (UniProt Q9Y2B0), the log2 fold change was inactive: -0.014.

Consider CISD1 (UniProt Q9NZ45), for which the log2 fold change was inactive: 0.051.

In the case of CNOT6L (UniProt Q96LI5), the log2 fold change was inactive: -0.002.

As for CNOT10 isoform 6 (UniProt Q9H9A5), the log2 fold change was inactive: -0.033.

On to CNOT3 (UniProt O75175), for which the log2 fold change was inactive: -0.012.

Turning to COA7 (UniProt Q96BR5), the log2 fold change is inactive: -0.049.

In the case of CNTNAP4 (UniProt Q9C0A0), the log2 fold change is inactive: 0.051.

Regarding CMC1 (UniProt Q7Z7K0), the log2 fold change is inactive: 0.015.

For the target CHMP7 (UniProt Q8WUX9), the log2 fold change was inactive: -0.07.

On to CISD3 (UniProt P0C7P0), for which the log2 fold change is inactive: 0.015.

In the case of CHURC1 isoform 2 (UniProt Q8WUH1), the log2 fold change was inactive: 0.013.

CNOT9 isoform 2 (UniProt Q92600): the log2 fold change is inactive: -0.051.

In the case of CKMT2 (UniProt P17540), the log2 fold change is inactive: 0.086.

COL1A2 (UniProt P08123): the log2 fold change is inactive: -0.4.

CMAS (UniProt Q8NFW8): the log2 fold change was inactive: -0.001.

CNP (UniProt P09543): the log2 fold change was inactive: -0.003.

As for CHORDC1 (UniProt Q9UHD1), the log2 fold change is inactive: -0.008.

With CKM (UniProt P06732), the log2 fold change is inactive: 0.034.

Turning to CNNM3 (UniProt Q8NE01), the log2 fold change was inactive: 0.007.

In the case of CNNM4 (UniProt Q6P4Q7), the log2 fold change is inactive: 0.02.

With CHST14 (UniProt Q8NCH0), the log2 fold change is inactive: -0.063.

On to CKAP5 (UniProt Q14008), for which the log2 fold change was inactive: -0.022.

Regarding CISD2 (UniProt Q8N5K1), the log2 fold change is inactive: 0.031.

Turning to CKMT1A (UniProt P12532), the log2 fold change is inactive: -0.002.

These data come from the supplement of paper PMC10849652.
